Results taken from PMC3792052, “Structural Analysis of Intermolecular Interactions in the Kinesin Adaptor Complex Fasciculation and Elongation Protein Zeta 1/ Short Coiled-Coil Protein (FEZ1/SCOCO)” (PLoS ONE, 2013).
These are yes or no findings as the source states them, for the method shown. Binding calls can cover weak binding; strength is not graded here. For part of these data: Sequences can lack the tags named with a protein.

Tests used:
[1] = target: T1, 6xHis-FEZ1 (1-392) (human) (UniProt Q99689); test: cross-linking; 5 x 10^-10 mol of each purified recombinant protein, 1.25 mM DSS, 2 h, room temperature; shifted bands of 12% SDS-PAGE digested with trypsin, LTQ Velos Orbitrap MS, MassMatrix search; done two times; both purified
T1 sequence: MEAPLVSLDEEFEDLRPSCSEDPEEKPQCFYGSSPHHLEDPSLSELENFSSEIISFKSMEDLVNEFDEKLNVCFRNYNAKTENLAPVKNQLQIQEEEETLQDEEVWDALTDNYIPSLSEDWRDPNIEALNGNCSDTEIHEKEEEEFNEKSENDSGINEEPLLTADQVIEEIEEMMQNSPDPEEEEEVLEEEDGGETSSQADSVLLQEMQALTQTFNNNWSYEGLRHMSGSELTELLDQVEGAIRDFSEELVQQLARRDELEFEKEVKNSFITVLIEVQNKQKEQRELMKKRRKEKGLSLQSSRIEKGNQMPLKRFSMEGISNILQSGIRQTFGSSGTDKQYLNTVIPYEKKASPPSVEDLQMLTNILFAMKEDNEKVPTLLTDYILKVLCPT

FEZ1 (221-392) (human) = target: T2, FEZ1 (221-392) (human) (UniProt Q99689); test: two-hybrid; yeast, beta-galactosidase activity; empty vector pBTM116 as control
T2 sequence: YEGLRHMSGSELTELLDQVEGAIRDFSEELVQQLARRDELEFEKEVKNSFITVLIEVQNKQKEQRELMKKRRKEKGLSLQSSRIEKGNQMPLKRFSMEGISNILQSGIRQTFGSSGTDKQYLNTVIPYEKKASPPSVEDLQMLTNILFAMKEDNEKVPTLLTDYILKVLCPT

| binding [1] | binding (FEZ1 (221-392) (human)) | Substance |
| --- | --- | --- |
| binds |  | 6xHis-SCOCO (2-82) (human) |
|  | binds | SCOCO (2-65), two-hybrid fusion (human) (domain or fragment) |
|  | binds | SCOCO (2-82), two-hybrid fusion (human) |
